## Screening data, single-dose tests

Data taken from ChEMBL document CHEMBL3988442, “University of Dundee, Small-Polar-MMV Screening Library” (2021).

The filed quantity is “Percent Effect” (%). The record does not define 0% and 100%; most values in the screen are far below 50% and negative numbers occur (in some assays of this library far below -100). This is an unselected part of the compounds tested. Two or more numbers in one place are separate tests of the same structure; such repeats can differ widely.

Mtb cholesterol medium: 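Phenotypic screen: M. tuberculosis growth, cholesterol and DPPC medium, 4 days; the read-out is not stated. Tested at 50 µM. Higher reads as more growth inhibition (inferred: compounds with an IC50 in retests scored well above the rest). Size under these conditions: about 69,000 compounds, about 370 of them at 50% or above in at least one test.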
Mtb glucose medium: 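Whole-cell growth test on Mycobacterium tuberculosis, read after 3 days in glucose-containing 7H9 medium; the read-out is not stated. Tested at 50 µM. Direction is inferred from retests: higher values go with more growth inhibition. Of about 69,000 compounds tested this way, about 760 (1.1%) reached 50% or more in at least one test.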

| SMILES | Mtb cholesterol medium | Mtb glucose medium |
|---|---|---|
| `COc1ccccc1OC1CN(C(=O)Cc2c(C)nc(C)[nH]c2=O)C1` | 0.7794% | 8.439% |
| `[H][C@@]12CCN(C(=O)c3ccsc3)[C@]1([H])CCC(=O)N2CC1CC1` | 9.65% | 15.73% |
| `COc1c(CNCc2ccccc2CO)c(C)nn1C` | -12.97% | -22.07% |
| `CC(C)n1c2ccccc2c2c1cc(C(=O)O)n2C(=O)N(C)C` | -8.68% | -18.06% |
| `CC(=O)N1CCN(CC(C)(O)c2cccc(C(F)(F)F)c2)CC1` (stereo not given) | 3.806% | 24.56% |
| `Cc1nc(CN(C)C(=O)Nc2cnn(CC3CCCO3)c2)cs1` (stereo not given) | -11.22% | 0.7815% |
| `CCS(=O)(=O)N1CCc2onc(COc3ccccn3)c2C1.O=C(O)C(F)(F)F` | 22.51% | -4.8% and -8.675% |
| `Cc1nc(N2CCCCC2)ncc1-c1cc(=O)[nH]c(N2CCCC2)n1` | -11.33% and 0.1405% | -5.081% |
| `O=C(O)C(F)(F)F.O=C(O)C(F)(F)F.[H][C@@]12OCCN(Cc3ccc(F)cc3)[C@@]1([H])CC[C@H]2Oc1ccccn1` | 14.12% | -9.676% and 11.26% |
| `Cc1ccccc1OCC(=O)N1CCN(C2CCOC2=O)CC1` (stereo not given) | 5.707% | -11.24% |
| `O=C(O)C(F)(F)F.O=C(O)C(F)(F)F.[H][C@@]12CCCO[C@]1([H])[C@H](N(C)Cc1cccnc1)CN2C(=O)c1ccno1` | 4.468% | 18.01% |
| `Cc1nc(Nc2cnccn2)cc(C2CN(C(C)C)C2)n1.O=CO` | -16.74% | -2.457% |
| `O=C1NCCN1C1CCN(Cc2nc(-c3ccc(F)cc3)no2)CC1` | -6.65% | -16.43% |
| `Cc1nonc1C1CCCN1CCC(=O)N1CCc2ccccc2C1` (stereo not given) | -39.07% | -39.71% |
| `Cc1nc2c(c(NC3CC3)n1)CCN(C(=O)C(C)(C)O)CC2` | -20.21% | -0.1568% |
| `CN(C)Cc1ccc(C(=O)N2CCCC(n3cccn3)C2)cc1` (stereo not given) | -0.03067% | -43.76% |
| `NC(=O)C1CCN(C(=O)c2ccn(-c3cccc(F)c3)n2)C1` (stereo not given) | 1.247% | -0.5433% and -16.03% |
| `OC[C@@H]1CCCN1c1ccc(-c2nc(CCc3ccccc3)no2)cn1` | 20.02% | 31.97% |
| `Cc1ccc(S(=O)(=O)N2CCOCC2C(N)=O)c(F)c1` (stereo not given) | 8.836% | 16.73% |
| `O=C(c1ccon1)N1CCN(c2ccncc2Cl)CC1` | 12.39% | 19.82% |
| `O=C(O)C(F)(F)F.[H][C@@]12CCN(Cc3nccs3)C[C@@]1([H])O[C@@H](C(=O)NC)C2` | -19.63% | 16.62% |
| `CCN(CC)Cc1ccc(C(=O)N2CCN(CC(C)O)CC2)cc1` (stereo not given) | 9.554% | 11.96% |
| `O=C(CN1CCC(C(=O)c2cc(F)ccc2F)CC1)NC1CCCC1` | -22.72% | -0.9398% and -18.44% |
| `Cc1cc(=O)n(CC(=O)NCC2CCCO2)c(-c2ccc(F)cc2)n1` (stereo not given) | -31.6% | -48.07% |
| `CC(CNC(=O)c1cnc[nH]1)Oc1ccccc1Br` (stereo not given) | 6.774% | 18.86% |
| `CCc1noc(CN(C)C(=O)COc2cc(Cl)cc(Cl)c2)n1` | 9.333% | 1.564% |
| `c1ccc2cc(OCCCN3CCn4c(nnc4C4CC4)C3)ccc2c1` | 6.362% | 43.73% |
| `Cc1sc(CN)nc1-c1ccc(Cl)cc1Cl` | 10.47% | 17.12% |
| `CCCc1nc(C)cc(N2CCC3(CCC(=O)N(C4CC4)C3)CC2)n1` | 7.304% | 17.91% and 2.402% |
| `Cc1ccc(N2Cc3c(CN(C)C)nn(C)c3C2)nn1` | 14.17% | -10.15% and 13.36% |
| `CN(C)C(C(=O)N1CCN(S(N)(=O)=O)CC1)c1ccccc1F` (stereo not given) | -22.75% | -9.556% |
| `CCC(C)(CC(=O)OC)NCc1c(C)noc1C` (stereo not given) | 9.817% | -7.167% and -0.6758% |
| `OCC1CCCCN1CCn1ccnc1-c1nc2ccccc2[nH]1` (stereo not given) | -6.195% and -1.858% | 6.287% |
| `Nc1nc(NCCO)cc(N2CCc3c([nH]c4ccccc34)C2)n1` | 11.53% | 25.93% and 14.21% |
| `Cc1cnn(CC2CCCCN2C(=O)c2ccc(C#N)c(C)n2)c1` (stereo not given) | -6.056% and -6.764% | 18.1% and -2.629% |
| `Cc1ccsc1C(=O)N1CC(C(=O)NC(C)C)C2(CCOCC2)C1` (stereo not given) | 0.1824% and -4.8% | -2.978% and 1.617% |
| `CCc1nnc(CN2CCC3(CC2)Nc2ccccc2NC3=O)o1` | -11.09% | -32.97% |
| `CC(c1nc(C2CC2)no1)N1CCc2c(ncn2C2CC2)C1` (stereo not given) | 4.587% | -1.033% |
| `F[C@@H]1CN(C2CCC2)C[C@@H]1OCc1nc2ncccc2[nH]1` | -28.87% | -37% and -2.531% |
| `Cn1cc(C2COC3(CCN(C(=O)c4ccccn4)CC3)C2)cn1.O=C(O)C(F)(F)F` (stereo not given) | 13.9% and -11.87% | -8.731% |
| `CCCc1cc(C(=O)N(Cc2cccnc2)C[C@@H]2CCC(=O)N2)no1` | -1.427% | 3.556% |
| `CC(=O)Nc1nc(C(=O)N2CCCCC2Cn2cccn2)cs1` (stereo not given) | -5.728% | 0.8946% |
| `CN(C)CC(=O)N1CC2(CCN(Cc3ccccc3)C2)C1` | 8.543% | -12.39% |
| `COc1ccc(Nc2nc3c(C)nn(C)c3c(=O)n2C)c(C)c1` | -6.797% | 24.26% |
| `CNc1cccc(CC2COCCN(C(=O)c3cncs3)C2)n1` (stereo not given) | -13.71% and 6.068% | 10.15% |
| `c1ccc(CN2CCN(C3CCOC4(CCOCC4)C3)CC2)nc1` (stereo not given) | 4.409% | -31.54% |
| `CN(Cc1ccsc1)C(=O)c1cccc(S(=O)(=O)NCC2CCCO2)c1` (stereo not given) | -7.149% | 4.515% |
| `[H][C@]12CC[C@]([H])(CN(CC(=O)N(C)C)C1)N(C(=O)CCn1cc(C)cn1)C2` | 2.686% | 20.28% |
| `Cl.FC(F)(F)c1nc(C2CCCNC2)no1` (stereo not given) | 4.225% and -10.8% | -37.57% |
| `[H][C@]12CC[C@]([H])(CN(C(=O)c3ccc(S(N)(=O)=O)cc3)C1)N(CC=C(C)C)C2` | 21.24% | -43.8% and 0.314% |
| `COc1ccc(CNC(=O)NCc2ccc(C(N)=O)cc2)cn1` | -3.349% | -23.36% |
| `CCc1noc(C(C)N(C)CC(=O)Nc2ccc(Cl)c(C(F)(F)F)c2)n1` (stereo not given) | 10.61% | 26.18% |
| `Cc1ccc2c(c1)nc1n2[C@@H](CNC(=O)c2cncnc2)COC1` | -11.26% | -5.077% and -5.65% |
| `CCc1ccc(C2CC(=O)Nc3c2c(=O)n(C)c2ncnn32)cc1` (stereo not given) | -27.83% | -3.244% |
| `O=C(Cc1ccccc1F)N1CCN(C(=O)c2ccoc2)CC1` | -4.891% | 19.65% and -5.685% |
| `CC(C)CCC(=O)Nc1ncn(CC(=O)N2CCCCCC2)n1` | 6.93% | 21.47% and 1.19% |
| `CCn1nnc2c1C(COCCN(C)C)CN(S(=O)(=O)CC)C2.O=C(O)C(F)(F)F` (stereo not given) | -3.34% | -4.589% and -18.35% |
| `Cc1nonc1NC(=O)C1SCCc2ccccc21` (stereo not given) | -2.896% | 16.81% |
| `COCc1nc2ncc3c(=O)n(-c4ccc(OC)cc4)ccc3n2n1` | -18.35% and -9.235% | -3.522% |
| `O=C(O)C(F)(F)F.[H][C@@]12CCC(=O)N(c3cnn(C)c3)[C@]1([H])CCN2Cc1ccc(OC)cc1` | -13.45% | -33% |
| `COc1ccc(CN2CCCC(Cn3nc(C)nc3C)C2)cc1F` (stereo not given) | -3.368% | -9.557% |
| `O=C(O)C(F)(F)F.[H][C@@]12OCCN(C(=O)COC)[C@@]1([H])CC[C@H]2OCc1cccnc1` | -27.78% | -48.91% and -3.72% |
| `COc1ccc(-c2cnc3n2CCNC32CCN(S(C)(=O)=O)CC2)cc1` | 10.73% | 0.4166% and 4.214% |
| `COc1cc(C(=O)NCC2(N(C)C)CCN(C)CC2)c2ccccc2n1` | -3.127% and -26.38% | -17.41% |
| `Cc1cc2c(cc1C(=O)N1CC[C@H](CO)[C@@H](O)C1)OCCO2` | -6.224% | -20.65% |
| `CC(C)n1nc2c(cc1=O)CN(CC(=O)N(C)c1nccs1)CC2` | 8.913% | -4.985% and -9.272% |
| `O=C(c1c[nH]c2ccccc2c1=O)N1CCSCC1` | 32.73% | 98.72% |
| `O=C(CCc1nc(C2CC2)no1)c1ccccc1` | 5% | -5.523% |
| `[H][C@@]12CCN(Cc3ccco3)C[C@@]1([H])O[C@@H](c1ccnc(C)n1)C2` | -12.03% | -14.75% |
| `CCn1cnnc1CNC(=O)N1CCN(c2ccccc2O)CC1` | 1.371% | 8.718% |
| `[H][C@]12CCN(C(=O)Nc3ccccc3C)CC[C@@]1([H])S(=O)(=O)N(C)C2` | 9.309% | -3.262% |
| `COc1ccc(CCC(=O)N2CCNCC2C(=O)N2CCCC2)cc1` (stereo not given) | -4.296% | -11.68% and -1.987% |
| `CCOc1ccc2oc(-c3cn(C)nc3C)c(O)c(=O)c2c1` | 1.764% | 16.19% |
| `O=C(O)C(F)(F)F.[H][C@@]12OCCN(S(=O)(=O)C3CC3)[C@@]1([H])CC[C@H]2OCCN1CCCC1` | -10.98% | -21.62% |
| `CN(C)C(=O)CN(C)C(=O)c1cnc(Cc2ccc(F)cc2)s1` | 3.281% | -20.89% |
| `CCOc1ccnc(N2CCCN(c3nc(CC)ns3)CC2)n1` | 10.36% | -1.167% |
| `Cc1cnn(CCNCC(O)c2ccc(S(C)(=O)=O)cc2)c1` (stereo not given) | 0.9293% | 19.71% |
| `Cc1csc2c(N3CCC(NCCCc4ccncc4)CC3)ncnc12` | -32.37% | -4.704% |
| `Cc1cn2c(n1)CCC(NC(=O)c1cc[nH]n1)C2` (stereo not given) | -5.023% | -31.54% |
| `Cc1ccc(-c2nc(CN3CCOC(CN(C)C)C3)co2)cc1` (stereo not given) | 33.96% | 42.58% |
| `Cc1nccn1-c1ccc(=O)n(CCNC(=O)c2cccs2)n1` | 11.06% | 11.44% |
| `CCc1cc(NCc2ccccc2CN2CCCC2)n2ncnc2n1` | -13.66% | -22.38% and -8.666% |
| `Cn1nc(C2CCN(C(=O)c3cnccn3)C2)cc1CCO` (stereo not given) | 10.18% | 25.88% |

6 of the entries, repeated:

SMILES	Mtb cholesterol medium	Mtb glucose medium
Cc1nccn1-c1ccc(=O)n(CCNC(=O)c2cccs2)n1	11.06%	11.44%
O=C(c1ccon1)N1CCN(c2ccncc2Cl)CC1	12.39%	19.82%
Cc1nc2c(c(NC3CC3)n1)CCN(C(=O)C(C)(C)O)CC2	-20.21%	-0.1568%
[H][C@]12CC[C@]([H])(CN(C(=O)c3ccc(S(N)(=O)=O)cc3)C1)N(CC=C(C)C)C2	21.24%	-43.8% and 0.314%
CCN(CC)Cc1ccc(C(=O)N2CCN(CC(C)O)CC2)cc1 (stereo not given)	9.554%	11.96%
CC(C)n1nc2c(cc1=O)CN(CC(=O)N(C)c1nccs1)CC2	8.913%	-4.985% and -9.272%